These are yes or no findings as the source states them, for the method shown. Binding seen in cells or lysates may run through a third protein. Here binding means that the protein was enriched with, or labelled near, the bait; the list need not be complete.
Target: neurotrophin receptor p75NTR (human (endogenous in PMDC05)) (UniProt P08138)
Assay: affinity purification with mass spectrometry; endogenous p75NTR captured with antibody ME20.4 on protein G Dynabeads from lysate of 2 × 10^7 PMDC05 cells (130 mM NaCl, 50 mM HEPES pH 7.4, 1% Triton X-100), overnight at 4°C; acid elution fraction (0.1 M glycine pH 2.4) analysed by LC-MS/MS

The chains behind the UniProt entries cited, without tags or fusion partners. Residues count along the entry.
UniProt P08138, residues 29-427: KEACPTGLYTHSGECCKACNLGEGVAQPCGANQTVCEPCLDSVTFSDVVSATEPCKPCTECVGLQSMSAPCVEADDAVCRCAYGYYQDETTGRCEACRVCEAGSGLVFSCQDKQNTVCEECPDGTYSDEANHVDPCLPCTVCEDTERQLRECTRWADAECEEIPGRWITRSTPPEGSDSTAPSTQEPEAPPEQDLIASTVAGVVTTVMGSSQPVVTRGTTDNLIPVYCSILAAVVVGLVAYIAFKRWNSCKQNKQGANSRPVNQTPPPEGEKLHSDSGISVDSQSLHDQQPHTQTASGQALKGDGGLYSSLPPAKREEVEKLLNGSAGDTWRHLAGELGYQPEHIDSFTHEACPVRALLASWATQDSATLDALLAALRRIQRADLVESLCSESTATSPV
UniProt P62258: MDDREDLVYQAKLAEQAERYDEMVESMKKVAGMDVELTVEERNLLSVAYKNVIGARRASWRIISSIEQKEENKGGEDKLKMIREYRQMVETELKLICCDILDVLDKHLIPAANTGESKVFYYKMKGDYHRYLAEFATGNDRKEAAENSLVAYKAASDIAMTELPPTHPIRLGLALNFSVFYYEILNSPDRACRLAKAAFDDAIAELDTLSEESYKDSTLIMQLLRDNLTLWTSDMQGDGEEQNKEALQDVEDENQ

14-3-3ϵ (from UniProt P62258 1-255)
binding: binds

Source: paper PMC8085361
